Values quoted from earlier work as cited in patent US9149457B2, “Nutraceutical composition for PDE4 inhibition, enhanced dopamine metabolism and long term potentiation” (priority 2013, dated 2015).
At least one compound was matched to its structure with a doubt left.

System: acetylcholinesterase
Settings: references 33-35; cited from earlier work

## C=C[C@@]1(C)CC(=O)[C@]2(O)[C@@]3(C)[C@@H](O)CCC(C)(C)[C@@H]3[C@H](O)[C@H](OC(C)=O)[C@@]2(C)O1 [Forskolin, forskolin]
  transcription of the enzyme acetylcholinesterase: increases transcription
